# Results published in PubChem BioAssay AID662 (National Center for Advancing Translational Sciences (NCATS), 2007).
# The list shows a part of the results. These are further read-outs of the screen, such as a control signal, another cell line or another target. No call is given for them. Compounds called inactive in the main read-out are mostly missing here. Potencies come from curve fits of mixed quality, noted in brackets.
# Test: Cell signaling CRE-BLA (Fsk stim)
# Details: CHO CRE-bla reporter (cAMP response element driving beta-lactamase), forskolin EC10, beta-lactamase ratio; measured here: 460 nm blue channel
# Outline: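 CHO CRE-bla cells, overnight plating in Opti-MEM with 0.5% dialyzed FBS; cpd titration + EC10 NKH 477, 3 h 37 °C; CCF4 2 h RT; ex 405/em 460 vs 530 ratio → %Activity, AC50.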
row,Compound,AC50
1,O=C(NCc1cccs1)c1cccc(S(=O)(=O)N2CCCCC2)c1,"3.98 µM [falling, partial curve, poor fit]"
2,COc1ccccc1NC(=O)CN1C(=O)CCS(=O)(=O)c2ccccc21,"0.2 µM [falling, full curve]"
3,CCC(=O)Nc1ccc(S(=O)(=O)Nc2cccc(C)c2)cc1OC,"0.316 µM [rising, full curve]"
4,Cc1onc(-c2ccccc2Cl)c1C(=O)N1CC(C)OC(C)C1 (stereo not drawn),"3.16 µM [falling, full curve]"
5,COCCn1c(=O)c(-c2cccc(C#N)c2)nc2cnc(N(C)C)nc21,"15.8 µM [rising, partial curve]"
6,Cc1cc(N2CCOCC2)nc(SCC(=O)c2ccc(Cl)cc2)n1,"10 µM [rising, partial curve]"
7,COc1ccc(NC(=O)N(C2CCCCC2)C(C)c2cccnc2)c(OC)c1 (stereo not drawn),"0.2 µM [falling, full curve]"
8,CCOC(=O)CSc1nc2c(sc3ccccc32)c(=O)n1CCCN1CCOCC1,"25.1 µM [rising, single point]"
9,CC(OC(=O)C1CCN(S(=O)(=O)c2ccccc2)CC1)C(=O)Nc1ncc(Cl)cc1Cl (stereo not drawn),"3.98 µM [rising, single point]"
10,CSc1nnc2c(n1)[nH]c1c(C)cccc12,"10 µM [rising, partial curve]"
11,CC(=O)Oc1cccc(N2C(=O)C3C4C=CC(C4)C3C2=O)c1 (stereo not drawn),"0.398 µM [rising, partial curve]"
12,COCCn1c(N)c(S(=O)(=O)c2cccs2)c2nc3ccccc3nc21,"10 µM [rising, partial curve]"
13,O=C(Nc1ccc(F)cc1F)c1cccnc1,"3.98 µM [falling, partial curve]"
14,CC(C)NC[C@H](O)COc1cccc2[nH]ccc12,"31.6 µM [falling, partial curve, poor fit]"
15,Cc1onc(-c2ccccc2)c1C(=O)Nc1ccccc1N1CCOCC1,"20 µM [rising, single point]"
16,COC(=O)c1cn(NC(=O)c2ccc3c(c2)OCO3)c(=O)c2ccccc12,"0.00398 µM [falling, full curve, poor fit]"
17,COc1ccc(S(=O)(=O)N2CCN(CC(=O)Nc3ccc(F)c(F)c3)CC2)cc1,"0.0316 µM [falling, full curve]"
18,CC(C)CCNC(=O)c1cnn2c(C(F)(F)F)cc(-c3ccco3)nc12,"1.58 µM [rising, partial curve]"
19,O=C(Cc1ccccc1)Nc1nc2ccc(Cl)cc2c2nc(-c3ccco3)nn12,"50.1 µM [rising, partial curve, poor fit]"
20,CCCN1C(=O)SC(CC(=O)Nc2ccccc2)C1=O (stereo not drawn),"0.316 µM [falling, partial curve, poor fit]"
21,CCOc1ccccc1Nc1nnc(C)c(=O)[nH]1,"25.1 µM [falling, single point]"
22,Cc1ccccc1-n1c(=O)cc(N2CCc3ccccc3C2)[nH]c1=O,"2.51 µM [falling, single point]"

# Filtered by structure: those above containing a furan ring, fused or not (two)
row,Compound,AC50
18,CC(C)CCNC(=O)c1cnn2c(C(F)(F)F)cc(-c3ccco3)nc12,"1.58 µM [rising, partial curve]"
19,O=C(Cc1ccccc1)Nc1nc2ccc(Cl)cc2c2nc(-c3ccco3)nn12,"50.1 µM [rising, partial curve, poor fit]"

# Following part

row,Compound,AC50
1,O=C(O)C1CC=C(Cl)CC1C(=O)NCC1OCCc2ccccc21 (stereo not drawn),"0.398 µM [falling, full curve, poor fit]"
2,CCOc1ccccc1-c1nn2c(Cc3ccccc3)nnc2s1,"10 µM [rising, partial curve]"
3,CCCCn1cnc2cc(NCc3cccc(OC)c3O)ccc21,"15.8 µM [falling, partial curve, poor fit]"
4,Oc1ccc(Br)cc1/C=N/n1cnc2ccccc21,"0.00398 µM [falling, full curve, poor fit]"
5,COCC(=O)N(Cc1cc2cc(OC)ccc2[nH]c1=O)c1ccccc1,"7.94 µM [rising, partial curve]"
6,CCCCNc1ncnc2c1cnn2-c1ccccc1,"12.6 µM [rising, partial curve]"
7,Cc1cc(NC(=O)CSc2nnc(-c3ccc4c(c3)OCCO4)o2)no1,"10 µM [falling, partial curve]"
8,C1=CC2c3ccccc3NC(c3ccncc3)C2C1 (stereo not drawn),"10 µM [rising, single point]"
9,COc1ccc2cc(CCNC(=O)c3ccc(Br)o3)c(=O)[nH]c2c1,"12.6 µM [rising, single point]"
10,CCOC(=O)C1CCCN(C(=O)c2sc3nc(-c4ccc(F)cc4)cn3c2C)C1 (stereo not drawn),"1.26 µM [rising, full curve, poor fit]"
11,CCOC(=O)N1CCC(NC(=O)c2cccn3c(=O)c4cc(Br)ccc4nc23)CC1,"12.6 µM [rising, single point]"
12,COc1ccc(O)c(C2NC(CC(C)C)(C(=O)O)C3C(=O)N(Cc4ccccc4)C(=O)C23)c1 (stereo not drawn),"25.1 µM [falling, single point]"
13,Cc1ccc(C(C(=O)NC2CCCC2)N(Cc2ccco2)C(=O)CCC(=O)Nc2ccccn2)cc1 (stereo not drawn),"3.98 µM [falling, partial curve]"
14,O=C(CCCCCNS(=O)(=O)c1ccc(Br)cc1)NCCN1CCOCC1,"2 µM [falling, partial curve]"
15,Cc1ccc(-n2nnc3c(=O)n(Cc4ccccc4C)cnc32)cc1,"12.6 µM [rising, partial curve]"
16,COc1ccc(-c2cc(-c3ccccc3O)[nH]n2)cc1OC,"15.8 µM [falling, single point]"
17,COc1ccccc1OCCSc1nnc(C)n1-c1ccccc1,"1.58 µM [rising, partial curve]"
18,COCCNC(=O)c1cc2c(=O)n(C)c3ccccc3c2n1C,"7.94 µM [rising, partial curve]"
19,CCOCCCn1c(C)nc2c(c1=O)c1nc3ccccc3nc1n2CCC1=CCCCC1,"10 µM [rising, partial curve]"
20,COc1ccc(NC(=O)c2ccc(-n3nc(C)c[n+]3[O-])cc2)cc1,"25.1 µM [rising, single point]"
21,COc1cccc(-c2cc3nc(-c4ccccc4)cc(N4CCC5(CC4)OCCO5)n3n2)c1,"3.16 µM [rising, full curve]"
